This assay can be described thus: qHTS Assay for Lipid Storage Modulators in Drosophila S3 Cells.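 As to cell number change: cells counted by Cell Tracker Red CMTPX staining in the red channel.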 To be noted: BODIPY lipid droplet fluorescence, 18-24 h; for cell number change: measured here: cell count max response, cells fed with added oleic acid. The method in brief: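 Drosophila S3 cells loaded with oleic acid (400 uM, as added) and compounds at several concentrations; lipid droplets imaged by 488-nm laser-scanning cytometry, 500–530 nm intensity and object ratio to cell channel. Percent activity normalized to 20 uM Triacsin C.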
(In general: Quantitative high-throughput screening tests each substance at several concentrations.)

Setting [1] is: measured here: cell number channel AC50, cells fed with added oleic acid.
Setting [2] is: measured here: lipid fluorescence (Fed channel) AC50, cells fed with added oleic acid.

A word on the AC50: it is the midpoint of the concentration-response curve, whichever way the signal moves. The low end stands for greater potency, the high end for weaker potency.

The structures appear in SMILES notation. The list shows a part of the results. These are further read-outs of the screen, such as a control signal, another cell line or another target. No call is given for them. Compounds called inactive in the main read-out are mostly missing here. Potencies come from curve fits of mixed quality, noted in brackets.

On to `O=C(CCCN1C(=O)c2ccccc2C1=O)Nc1ccccc1`, for which the cell number change stood at 1.6%.

As to `CCOC(=O)C1=C(C)NC(=O)NC1c1cccc(OC)c1OCc1ccccc1Cl` (stereo unspecified), the cell number change was -31.7%. In addition, the AC50 under setting [1] is 20.6 µM [falling, single point].

On to `Oc1ccc(Nc2nc(-c3ccccc3O)nc3ccccc23)cc1`, for which the cell number change turned out to be 27.9%. Also, under setting [2], the AC50 is 29.1 µM [rising, single point].

As to `CCCCCCc1c(C)nc(-n2[nH]c(C)c(CCO)c2=O)[nH]c1=O`, the cell number change stood at 1.97%.

With `COc1ccc(S(=O)(=O)Nc2ccc(NC(C)=O)cc2)cc1Br`, the cell number change is -22.5%. Further, the AC50 under setting [1] was 5.17 µM [rising, single point]. For the same molecule, the AC50 under setting [2] was 16.4 µM [falling, single point].

Regarding `C=CCn1c(SCc2ccccc2F)nc2cc(C(=O)O)ccc2c1=O`, the cell number change turned out to be 12%. In addition, under setting [2], the half-maximal activity concentration (AC50) was 6.51 µM [rising, single point].

Take `Cc1ccc(S(=O)(=O)N(Cc2cc3cc4c(cc3[nH]c2=O)OCCO4)CC2CCCO2)cc1` (stereo unspecified): the cell number change amounted to 14.3%.

For `Cc1ccc(OCCCNCCO)c(Br)c1`, the cell number change is -30.4%. In addition, the concentration at half-maximal activity (AC50) under setting [1] is 5.8 µM [falling, full curve, poor fit]. For the same molecule, under setting [2], the AC50 was 0.58 µM [falling, full curve].

Turning to `CCOc1ccccc1CNC(=O)c1nn(CC)cc1[N+](=O)[O-]`, the cell number change was -0.314%.

As for `COc1ccc(C(=O)Nc2ccc(NC(=O)c3cc(OC)c(OC)c(OC)c3)cn2)cc1`, the cell number change amounted to 17.1%. Moreover, under setting [2], the AC50 is 25.9 µM [falling, single point].

For the molecule `COC(=O)c1cc(Sc2cccc(Cl)c2Cl)ccn1`, the cell number change is 76.1%. Moreover, under setting [1], the half-maximal activity concentration (AC50) was 29.1 µM [rising, single point]. Besides, under setting [2], the half-maximal activity concentration (AC50) was 0.651 µM [rising, partial curve, poor fit].

Turning to `COc1cc(SC)ccc1C(=O)NCCc1c[nH]c2ccccc12`, the cell number change is -18.2%. The AC50 under setting [2] was 2.06 µM [falling, partial curve].

In the case of `CC1=NN(c2ccc(C(=O)O)cc2)C(=O)/C1=C/c1ccc(-c2ccccc2F)o1`, the cell number change is -98.6%. In addition, the concentration at half-maximal activity (AC50) under setting [1] was 20.6 µM [falling, single point]. Further, the AC50 under setting [2] was 7.31 µM [falling, partial curve].

Regarding `CCOc1ccc(/C=N/NC(=O)c2ccc(Cn3cc(Br)cn3)o2)cc1`, the cell number change is 12.7%. Besides, the AC50 under setting [2] was 0.517 µM [rising, full curve].

In the case of `Cc1noc(C)c1COC(=O)c1cc2c3ccccc3n(C)c2s1`, the cell number change turned out to be 52.8%. In addition, the AC50 under setting [1] is 7.31 µM [rising, partial curve]. Further, under setting [2], the half-maximal activity concentration (AC50) was 3.26 µM [rising, partial curve].

`Cc1cn2c(=O)c(C(=O)NCc3ccc4c(c3)OCO4)cnc2s1`: the cell number change worked out at 34.7%. Moreover, the concentration at half-maximal activity (AC50) under setting [1] was 29.1 µM [rising, single point]. Besides, under setting [2], the half-maximal activity concentration (AC50) was 29.1 µM [rising, single point].

For `O=C(CNC(=O)c1cccs1)N/N=C/c1ccccc1[N+](=O)[O-]`, the cell number change is -20%. Besides, the concentration at half-maximal activity (AC50) under setting [2] was 6.51 µM [falling, single point].

Take `Cc1ccc(OC(C)C(=O)Nc2ccccc2C(=O)N2CCN(C)CC2)cc1` (stereo unspecified): the cell number change was -10.5%. Further, the AC50 under setting [2] is 29.1 µM [falling, single point].

For `CCN(CC(=O)Nc1ccc(S(=O)(=O)N2CCCC2)cc1)Cc1ccccc1`, the cell number change was -19.6%.

On to `CCOC(=O)N1CCN(CC(=O)Nc2c(C(=O)OC)[nH]c3ccc(Cl)cc23)CC1`, for which the cell number change was -36.6%. For the same molecule, under setting [1], the AC50 was 13 µM [falling, partial curve, poor fit]. In addition, the AC50 under setting [2] was 29.1 µM [falling, single point].

As to `Cc1cccc(NC(=O)c2ccccc2OCC(=O)N2CCCC2)c1C`, the cell number change was determined as 50.6%. Moreover, the AC50 under setting [1] is 16.4 µM [rising, partial curve, poor fit]. For the same molecule, the half-maximal activity concentration (AC50) under setting [2] was 0.82 µM [rising, full curve, poor fit].

Consider `Cc1occc1-c1nnc(SCC(=O)NCCc2ccccc2)o1`, for which the AC50 under setting [2] is 0.0731 µM [rising, partial curve, poor fit].

With `COC(=O)c1ccc(COc2ccc3c(C)c(C)c(=O)oc3c2C)o1`, the cell number change came to 21%. Besides, under setting [2], the AC50 is 9.2 µM [rising, partial curve, poor fit].

For `COc1cccc(C(=O)CN(C(=O)c2ccc(Cl)c(Cl)c2)N2C(=O)c3ccccc3C2=O)c1`, the cell number change was -23.2%. Moreover, the half-maximal activity concentration (AC50) under setting [2] was 0.651 µM [rising, full curve, poor fit].

For `C=CCNc1nc(C)nc(OC)n1`, the cell number change was -23.6%.

As for `CS(=O)c1ccccc1O` (stereo unspecified), the cell number change is -12.6%. Besides, under setting [1], the AC50 is 0.164 µM [falling, full curve, poor fit]. In addition, the concentration at half-maximal activity (AC50) under setting [2] is 0.146 µM [falling, full curve, poor fit].

As for `CN(Cc1cc([N+](=O)[O-])ccc1Cl)C(=O)C[n+]1ccccc1`, the AC50 under setting [2] was 0.411 µM [rising, partial curve, poor fit].

`O=C1[C@H]2[C@@H](c3ccc(F)cc3)N3C(=O)N(c4cccc(F)c4)C(=O)[C@@]3(Cc3ccc(Cl)cc3)[C@H]2C(=O)N1C1CCCCC1`: the cell number change is -31.9%. Under setting [1], the AC50 is 3.26 µM [falling, full curve, poor fit].

Turning to `CCOc1cc(/C=N/NC(=O)C2CCCC2)ccc1O`, the half-maximal activity concentration (AC50) under setting [2] is 29.1 µM [falling, single point].

With `Cc1ccc(NC(=S)N(CCN2CCCCC2)Cc2ccco2)cc1C`, the cell number change stood at 86.3%. For the same molecule, the AC50 under setting [1] is 16.4 µM [rising, partial curve]. Also, the AC50 under setting [2] was 0.58 µM [rising, single point].

Take `CCOc1ccc2[nH]c(C(=O)N/N=C/c3cc(OC)c(OC)c(OC)c3)cc2c1`: the cell number change was -19.1%. In addition, the AC50 under setting [2] is 25.9 µM [falling, single point].

For `CC1CCN(C(=O)c2[nH]cnc2C(=O)N[C@@H](C)c2ccccc2)CC1`, the cell number change was 6.02%. Besides, under setting [2], the AC50 was 6.51 µM [rising, partial curve].

For `CC(NC(=O)C1CC=CCC1C(=O)O)C1CC2CCC1C2` (stereo unspecified), the cell number change is -12.2%.

Turning to `COc1ccc(C(=O)N2CCN(C(C)=O)CC2)cc1S(=O)(=O)NCc1ccc(Cl)cc1`, the cell number change was determined as 1.59%. Besides, the AC50 under setting [2] is 2.31 µM [rising, single point].

For `COc1ccc(Cl)cc1C(=O)Nc1ccc(NC(=O)C(C)C)cc1`, the cell number change is 11.3%.

For the molecule `O=C(Nc1cccnc1)c1ccccc1NS(=O)(=O)c1ccc(F)cc1`, the cell number change is -116%. Besides, the half-maximal activity concentration (AC50) under setting [1] is 20.6 µM [falling, single point]. Besides, the AC50 under setting [2] was 29.1 µM [falling, single point].

Regarding `O=C(NCCCn1ccnc1)/C(=C/c1ccc(F)cc1)NC(=O)c1ccccc1`, the cell number change was -23.1%.

Regarding `CCc1ccc(S(=O)(=O)Nc2cc(SCC(=O)O)c(O)c3ccccc23)cc1`, the cell number change was -46.1%. Moreover, the AC50 under setting [1] was 18.4 µM [falling, single point]. The AC50 under setting [2] was 25.9 µM [falling, partial curve].

Source of the values: PubChem BioAssay AID2685 (National Center for Advancing Translational Sciences (NCATS), 2010).
